Changes are numbered by the printed parent chain. Numbers in names are those of the source. No constants are given. Whether binding was seen depends on the method and setting. In cells and extracts the contact can be indirect. Some binding calls cover weakened binding; strength is not graded here.
B1: mouse MRAP2 (melanocortin receptor accessory protein 2) (protein, UniProt D3Z1Q2 1-207)
chain: MEMSAQRLASNRTSPQSPSNSDYTWEYEYYEIGPVSFEGLKAHKYSIVIGFWVGLAVFVIFMFFVLTLLTKTGAPHQDNAESSERRFRMNSFVSDFGKPLESDKVFSRQGNEESRSLFHCYINEVEHLDRVKVCHQTTAIDSDVHLQEASRSSGRPEEELARFMKFDIPNFVNTEQSSFGEDDLLISEAPVLLENKPVSQTSRIDLD
B2: human MRAP2 R125H mutant (protein, UniProt Q96G30 1-205)
chain: MSAQRLISNRTSQQSASNSDYTWEYEYYEIGPVSFEGLKAHKYSIVIGFWVGLAVFVIFMFFVLTLLTKTGAPHQDNAESSEKRFRMNSFVSDFGRPLEPDKVFSRQGNEESRSLFHCYINEVEHLDRAKACHQTTALDSDVQLQEAIRSSGQPEEELNRLMKFDIPNFVNTDQNYFGEDDLLISEPPIVLETKPLSQTSHKDLD
B3: human MRAP2 (protein, UniProt Q96G30 1-205)
chain: B2 chain with H125R
B4: human MRAP2 R125C mutant (protein, UniProt Q96G30 1-205)
chain: B2 chain with H125C

The chains behind the UniProt entries cited, without tags or fusion partners. Where a name states a change or a piece, a line headed by the entry shows the natural chain unless it says otherwise. Residues count along the entry.
UniProt Q8NFJ6: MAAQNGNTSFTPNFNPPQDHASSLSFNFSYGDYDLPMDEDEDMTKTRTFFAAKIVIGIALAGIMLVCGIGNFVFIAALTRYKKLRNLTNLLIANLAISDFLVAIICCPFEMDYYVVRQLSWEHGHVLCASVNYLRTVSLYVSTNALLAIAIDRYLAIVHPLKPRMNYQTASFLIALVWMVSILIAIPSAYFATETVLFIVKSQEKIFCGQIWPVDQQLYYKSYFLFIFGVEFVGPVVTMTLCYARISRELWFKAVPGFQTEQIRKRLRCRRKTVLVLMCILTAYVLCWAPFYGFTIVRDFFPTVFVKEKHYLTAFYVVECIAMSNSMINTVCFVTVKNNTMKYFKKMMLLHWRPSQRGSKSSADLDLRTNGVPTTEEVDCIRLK
GST fusion of the N-terminal region of PKR2: residues 1-69 of Q8NFJ6

target: PKR2 terminal tagged His (prokineticin receptor 2) (human) (UniProt Q8NFJ6); assay: pull-down; Ni-NTA His-bind resin co-precipitation (batch, native conditions) of solubilized yeast membrane fractions co-expressing PKR2-His and MRAP2 isoforms; blots with anti-His and anti-MRAP2

| binding | Binder |
| --- | --- |
| binds | B1 |
| binds | B2 |
| binds | B3 |
| binds | B4 |

target: GST fusion of the N-terminal region of PKR2 (human) (UniProt Q8NFJ6); assay: pull-down; R2-GST from E. coli lysate bound to glutathione-Sepharose and washed (buffer A: PBS, 1% Nonidet P 40, 1 mM EDTA), incubated overnight at 4 °C with total membrane extract of yeast expressing MRAP2 isoforms; eluted with GSH; blots with anti-GST and anti-MRAP2; only the target purified

| binding | Binder |
| --- | --- |
| binds | B1 |
| binds | B2 |
| binds | B4 |

— PMC9456287
